## Primary screen of a compound library

Sequences of proteins named here, by UniProt entry; tags and fusion partners are left off. Residues count along the entry.
UniProt Q8IDJ8, 1-583: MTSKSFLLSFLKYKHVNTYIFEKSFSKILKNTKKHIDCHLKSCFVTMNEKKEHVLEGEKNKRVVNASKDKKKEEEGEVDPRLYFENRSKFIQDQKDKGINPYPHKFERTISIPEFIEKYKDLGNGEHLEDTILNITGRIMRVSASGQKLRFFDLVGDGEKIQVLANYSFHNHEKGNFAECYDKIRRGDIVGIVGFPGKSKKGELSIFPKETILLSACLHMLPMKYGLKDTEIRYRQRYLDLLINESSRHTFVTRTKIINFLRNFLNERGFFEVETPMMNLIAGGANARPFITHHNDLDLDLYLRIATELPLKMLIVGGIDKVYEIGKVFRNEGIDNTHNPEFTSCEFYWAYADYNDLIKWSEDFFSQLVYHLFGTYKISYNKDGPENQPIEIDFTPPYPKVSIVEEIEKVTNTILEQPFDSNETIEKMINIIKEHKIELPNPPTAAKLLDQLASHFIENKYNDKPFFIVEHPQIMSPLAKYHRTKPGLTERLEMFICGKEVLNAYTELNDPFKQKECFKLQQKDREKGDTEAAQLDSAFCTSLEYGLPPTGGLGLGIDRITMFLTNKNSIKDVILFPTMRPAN
UniProt P9WFT3, whole entry: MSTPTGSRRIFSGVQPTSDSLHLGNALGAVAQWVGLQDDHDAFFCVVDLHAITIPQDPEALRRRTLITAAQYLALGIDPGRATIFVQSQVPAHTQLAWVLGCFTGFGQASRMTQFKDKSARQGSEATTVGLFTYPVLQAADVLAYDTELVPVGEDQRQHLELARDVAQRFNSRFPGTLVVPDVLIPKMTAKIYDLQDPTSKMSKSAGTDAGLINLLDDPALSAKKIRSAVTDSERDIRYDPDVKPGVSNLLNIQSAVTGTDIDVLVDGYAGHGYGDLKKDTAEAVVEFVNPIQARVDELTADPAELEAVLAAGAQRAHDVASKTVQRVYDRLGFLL
UniProt P9WPC5, whole entry: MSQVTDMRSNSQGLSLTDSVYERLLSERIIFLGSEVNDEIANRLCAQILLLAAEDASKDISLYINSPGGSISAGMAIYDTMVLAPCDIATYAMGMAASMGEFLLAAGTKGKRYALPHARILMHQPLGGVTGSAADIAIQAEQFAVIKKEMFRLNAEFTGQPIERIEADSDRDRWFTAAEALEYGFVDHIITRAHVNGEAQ
UniProt P9WPC3, whole entry partner: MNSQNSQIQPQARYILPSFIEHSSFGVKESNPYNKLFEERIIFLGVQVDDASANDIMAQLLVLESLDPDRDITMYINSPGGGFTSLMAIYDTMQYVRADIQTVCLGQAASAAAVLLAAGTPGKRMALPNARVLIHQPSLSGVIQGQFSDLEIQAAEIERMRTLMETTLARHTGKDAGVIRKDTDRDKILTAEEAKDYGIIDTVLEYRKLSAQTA
UniProt Q4DA54, 1-478: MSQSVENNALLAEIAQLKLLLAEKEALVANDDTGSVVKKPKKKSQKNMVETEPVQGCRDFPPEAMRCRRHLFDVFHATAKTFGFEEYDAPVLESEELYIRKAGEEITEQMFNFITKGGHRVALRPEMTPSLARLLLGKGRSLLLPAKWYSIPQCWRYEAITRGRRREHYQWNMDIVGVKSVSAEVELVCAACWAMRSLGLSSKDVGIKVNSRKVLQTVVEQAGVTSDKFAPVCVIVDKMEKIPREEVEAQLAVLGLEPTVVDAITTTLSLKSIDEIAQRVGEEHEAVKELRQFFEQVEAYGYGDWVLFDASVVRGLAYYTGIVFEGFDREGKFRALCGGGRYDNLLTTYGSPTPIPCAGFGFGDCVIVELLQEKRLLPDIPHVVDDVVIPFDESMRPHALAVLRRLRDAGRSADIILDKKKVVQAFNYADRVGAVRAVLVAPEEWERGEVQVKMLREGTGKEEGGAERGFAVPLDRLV

The values are deposited in ChEMBL (CHEMBL3988442, “University of Dundee, Small-Polar-MMV Screening Library” (2021)).

A: 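Enzyme assay of the cytosolic lysyl-tRNA synthetase in 384-well plates, read by luminescence. Target: Lysine-tRNA ligase, Plasmodium falciparum 3D7 (UniProt Q8IDJ8). Tested at 30 µM. Direction is inferred from only a few compounds that gave an IC50; most scored high, so higher reads as stronger inhibition. About 69,000 compounds were tested under these conditions; 0.071% (about 49) showed 50% or more at least once.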
B: 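Tryptophan-tRNA ligase, Mycobacterium tuberculosis (UniProt P9WFT3). Enzyme assay of tryptophanyl-tRNA synthetase; the read-out is not stated. Tested at 10 µM. Higher most likely means stronger inhibition; the record gives no direction and few retests gave an IC50. Of about 65,000 compounds tested this way, about 64 (0.098%) reached 50% or more in at least one test.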
C: 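ClpP1P2, Mycobacterium tuberculosis (UniProt P9WPC5 and UniProt P9WPC3). Protease assay of ClpP1P2, read by the AMC dye that it sets free. Concentration: 50 µM. Higher reads as stronger inhibition, judged from the few compounds that gave an IC50. Most other retested compounds had strongly negative values. Of about 69,000 compounds tested this way, about 10 (0.015%) reached 50% or more in at least one test.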
D: 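Histidine-tRNA ligase, Trypanosoma cruzi CL Brener (UniProt Q4DA54). Enzyme assay of histidyl-tRNA synthetase; the read-out is not stated. Compounds at 30 µM. The record gives no direction; compounds that gave an IC50 in retests scored well above the rest, so higher reads as stronger inhibition. About 69,000 compounds were tested under these conditions; 0.045% (about 31) showed 50% or more at least once.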

Values are the deposited “Percent Effect”, in %.
How 0% and 100% were set is not recorded. Most values in the screen are low, and negative values occur.
This is an unselected part of the compounds tested.

SMILES: Cn1nccc1C(=O)N1CCCC1c1[nH]ncc1C(N)=O (stereo not drawn)
A: 1.114%
B: 0.5217%
C: -0.1561%
D: 4.478%

SMILES: Cc1cccc(CN2C(=O)CCC23CCN(C(=O)NC(C)C)CC3)n1
A: -3.197%
B: -4.975%
C: -3.668%
D: 0.4808%

SMILES: COc1cc(-c2cc(NC3CCCC3)nc3[nH]ccc23)nc(N)n1
A: 3.329%
B: -5.013%
C: -7.13%
D: 5.202%

SMILES: CN(Cc1ccccc1)S(=O)(=O)N1C[C@@H](C(=O)O)[C@H](C2CC2)C1
A: 0.9753%
B: -2.592%
C: -8.948%
D: 2.646%

SMILES: O[C@@H]1CN(c2nc3ccccc3s2)CC[C@H]1c1ccc2c(c1)OCO2
A: 3.652%
B: -2.349%
C: -4.92%
D: 11%

SMILES: CC1CCN(CC(O)CNc2ccc(Cl)cn2)CC1 (stereo not drawn)
A: 0.5619%
B: -1.821%
C: -4.048%
D: -3.175%

SMILES: C[C@@H]1CN(C2(C(=O)N3CCSCC3)Cc3ccccc3C2)C[C@H](C)O1
A: 1.797%
B: 8.434%
C: -15.76%
D: 0%

SMILES: O=C(NCCCNC(=O)C1CCC1)NCCn1cccc1
A: 9.962%
B: 4.378%
C: -0.1181%
D: 7.514%

SMILES: CCOc1ccccc1OC1CCN(C(=O)c2cc[nH]n2)CC1
A: -7.798%
B: -1.572%
C: 13.69%
D: 1.141%

SMILES: CNCc1ccc(Oc2cncc(C)n2)cc1
A: 3.742%
B: -5.575%
C: 0.1207%
D: 6.25%

SMILES: COc1ccc(NC(=O)NCCCn2nc3ccccn3c2=O)cc1
A: 0.8399%
B: -5.367%
C: -24.34%
D: -0.8721%

SMILES: CC1c2ncc(Cn3cccn3)n2CCN1c1ncccn1 (stereo not drawn)
A: 2.778%
C: 3.693%
D: 6.533%

SMILES: N#Cc1ncn(CCC(=O)Nc2ccccc2F)n1
A: 2.926%
B: -2.297%
C: -4.972%
D: 1.005%

SMILES: Cc1cccc(N2CCCC3(C2)CN(S(C)(=O)=O)CCO3)c1 (stereo not drawn)
A: 2.16%
B: -6.77%
C: -3.146%
D: 3.448%

SMILES: NC(=O)CC1CCN(c2ncnc3cccc(F)c23)CC1
A: 3.248%
B: -6.311%
C: -3.586%
D: 6.863%

SMILES: CC(=O)N1CCC(N2CCOC[C@H]2c2nc(-c3ccc(Cl)s3)c[nH]2)CC1
A: 4.313%
B: -0.2276%
C: -0.489%
D: 8.696%

SMILES: Cc1nc(CN2CCO[C@H]3[C@@H](OCc4cccnc4)CC[C@@H]32)cs1
A: 4.439%
B: 3.099%
C: -0.1333%
D: 4%

SMILES: CN(C)CCOCc1nnc2n1CCN(Cc1cccs1)CC2
A: -2.264%
B: -5.053%
C: -3.898%
D: 5.714%

SMILES: N#Cc1cc(F)ccc1NCc1ccc(Cn2cncn2)cc1
A: 1.05%
B: -3.431%
C: -9.228%
D: 6.897%

SMILES: CCOc1cc(C(=O)N2CCCC(c3noc(C)n3)C2)ccc1OC (stereo not drawn)
A: -0.2364%
B: -7.263%
C: -22.98%
D: 2.312%

SMILES: CN(C)S(=O)(=O)N1CCCC1CC(=O)c1cccs1 (stereo not drawn)
A: -1.226%
B: -1.006%
C: -12.79%
D: -2.5%

SMILES: COC(=O)C(O)C1CCN(CCc2ccccn2)CC1 (stereo not drawn)
A: 2.627%
B: -2.726%
C: -8.999%
D: 3.448%

SMILES: Cc1cc(C)nc(C2(C)CCCN2CCO)n1 (stereo not drawn)
A: 0.5125%
B: -5.99%
C: -3.426%
D: 10.34%

SMILES: O=C1COc2c(cccc2C(=O)N2CCCC(n3cccn3)C2)N1 (stereo not drawn)
A: -2.082%
B: -2.26%
C: -24.72%
D: 0.8721%

SMILES: O=C(CO)N1C[C@H]2CC[C@@H]1CN(C1Cc3ccccc3C1)C2
A: 7.836%
B: 2.179%
C: -2.786%
D: 9.322%

SMILES: CCC(C)N1CCC(Oc2ccc(C(=O)NCCN(C)C)cc2Cl)CC1 (stereo not drawn)
A: 7.086%
B: -3.782%
C: -10.53%
D: 6.977%

2 of the entries, repeated:

SMILES,A,B,C,D
COc1ccc(NC(=O)NCCCn2nc3ccccn3c2=O)cc1,0.8399%,-5.367%,-24.34%,-0.8721%
Cc1cccc(CN2C(=O)CCC23CCN(C(=O)NC(C)C)CC3)n1,-3.197%,-4.975%,-3.668%,0.4808%